{"source": "patent US20110008461A1", "about": "(priority 2008, published 2011)", "key": {"[1]": {"molecular_target": "T1, Rat Liver Cytosolic Phosphoenolpyruvate Carboxykinase (Rattus norvegicus, UniProt P07379)", "T1 sequence (P07379 1-622)": "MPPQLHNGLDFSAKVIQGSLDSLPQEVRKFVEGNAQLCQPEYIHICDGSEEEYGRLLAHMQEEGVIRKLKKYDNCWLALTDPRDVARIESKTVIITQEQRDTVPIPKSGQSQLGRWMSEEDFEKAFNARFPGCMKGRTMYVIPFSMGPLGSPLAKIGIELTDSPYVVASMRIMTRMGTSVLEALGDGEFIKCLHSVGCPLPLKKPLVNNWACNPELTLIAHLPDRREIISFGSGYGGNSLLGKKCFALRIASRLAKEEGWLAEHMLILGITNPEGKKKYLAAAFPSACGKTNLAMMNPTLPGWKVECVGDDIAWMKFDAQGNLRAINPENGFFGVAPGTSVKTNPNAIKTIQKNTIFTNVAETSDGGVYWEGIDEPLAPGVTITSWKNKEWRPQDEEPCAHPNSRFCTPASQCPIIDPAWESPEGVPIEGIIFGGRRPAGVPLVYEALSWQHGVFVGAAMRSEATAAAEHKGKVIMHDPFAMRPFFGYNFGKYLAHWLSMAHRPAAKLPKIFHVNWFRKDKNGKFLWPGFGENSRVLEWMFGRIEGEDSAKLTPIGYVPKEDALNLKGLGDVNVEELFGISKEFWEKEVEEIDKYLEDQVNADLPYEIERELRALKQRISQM", "experiment": "Continuous spectrophotometric PEPCK inhibition assay coupled to malate dehydrogenase (preliminary screen, inhibition patterns, Dixon plots);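 further: PEPCK activity followed continuously via malate dehydrogenase coupling, where OAA reduction consumes NADH, seen as falling absorbance at 340 nm, run at 35 °C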", "conditions": "against PEP"}, "PEPCK": {"system": "PEPCK", "conditions": "cited from earlier work"}}, "note": "At least one structure is not confirmed: it was looked up by name or label, or the drawing left a doubt.", "data": [{"smiles": "C=C(CC(=O)O)C(=O)O", "note": "[Compound 7, Itaconate]", "values": [{"measurement": "Inhibition of PEPCK (in words)", "setting": "[1]", "result": "did not inhibit"}]}, {"smiles": "O=C(O)CC(=O)C(=O)O", "note": "[OAA, oxaloacetate]", "values": [{"measurement": "Km", "setting": "PEPCK; substrate", "result": "2 to 5", "unit": "µM"}]}, {"smiles": "CC(=O)C(=O)O", "note": "[pyruvate]", "values": [{"measurement": "Ki", "setting": "PEPCK", "result": 9, "unit": "mM"}]}]}
